Measured data: PubChem BioAssay AID1224826 (NIAID, 2016)
Purpose: 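Genes that change LPS-induced Tnf promoter activity in mouse macrophages when knocked down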 (primary screen). System: RAW264.7 G9 macrophages from mouse bearing reporters for p65 (GFP) and the Tnf promoter (mCherry). Knock-down reagent: siRNA pool against mouse genes, 100 nM. Timing: 16 h of LPS stimulation, after 2 days of siRNA transfection. Treatment: bacterial lipopolysaccharide (Salmonella minnesota R595), 10 ng/ml. Measured: 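Nuclear mCherry signal of the Tnf promoter reporter measured by imaging after background removal, scaled to each plate median and turned into robust z-scores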. Scale: Tnf reporter robust z-score: higher = stronger Tnf promoter reporter signal after LPS. Active means: 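Called active when robust z-score is at most -1.3, matching the median of the Tlr4 knock-down control, or over 3; control wells and wells with under 50 cells never active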. Calls: active = Tnf reporter clearly lowered or raised; inactive = no clear change in Tnf reporter.
Shown is one part, drawn at random, of about 17,000 deposited reagents. Of all reagents, about 1,110 (6.6%) are marked active. 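Active means lowered or raised reporter signal; replicate intensities are raw and not normalised per plate.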 Some reagents were tested in more than one well and are listed for each. Further read-outs or replicates are left out here.

For Pi4kb (GeneID 107650), how do the results read?
fewer than 50 cells in well: fewer than 50 cells per well; well left out of calls; Call: inactive

Which result is listed for Cts7 (GeneID 56092)?
Tnf reporter robust z-score: -0.24; fewer than 50 cells in well: enough cells in well; Call: inactive

With Cyp51 (GeneID 13121), what was measured?
Tnf reporter robust z-score: -1.29; fewer than 50 cells in well: enough cells in well; Call: inactive

With Sh3yl1 (GeneID 24057), what was measured?
Tnf reporter robust z-score: -1.3; fewer than 50 cells in well: enough cells in well; Call: active

With F11 (GeneID 109821), how do the results read?
Tnf reporter robust z-score: 0.43; fewer than 50 cells in well: enough cells in well; Call: inactive

What did the screen give for Btc (GeneID 12223)?
Tnf reporter robust z-score: -0.45; fewer than 50 cells in well: enough cells in well; Call: inactive

What did the screen give for Vmn2r37 (GeneID 22305)?
Tnf reporter robust z-score: 0.23; fewer than 50 cells in well: enough cells in well; Call: inactive

With Oxnad1 (GeneID 218885), how do the results read?
Tnf reporter robust z-score: 0.08; fewer than 50 cells in well: enough cells in well; Call: inactive

What is on record for Egfl6 (GeneID 54156)?
Tnf reporter robust z-score: -0.23; fewer than 50 cells in well: enough cells in well; Call: inactive

With Gbp2 (GeneID 14469), how do the results read?
Tnf reporter robust z-score: -0.86; fewer than 50 cells in well: enough cells in well; Call: inactive

For Pik3cg (GeneID 30955), what was measured?
Tnf reporter robust z-score: 0.64; fewer than 50 cells in well: enough cells in well; Call: inactive

What did the screen give for Pik3cg (GeneID 30955)?
Tnf reporter robust z-score: 0.06; fewer than 50 cells in well: enough cells in well; Call: inactive

For Golm1 (GeneID 105348), what does the deposit list?
Tnf reporter robust z-score: -0.3; fewer than 50 cells in well: enough cells in well; Call: inactive

What did the screen give for Or4c1 (GeneID 258446)?
Tnf reporter robust z-score: -1.32; fewer than 50 cells in well: enough cells in well; Call: active

In a second layout: results already given
| target | Tnf reporter robust z-score | fewer than 50 cells in well | Call |
| --- | --- | --- | --- |
| Egfl6 (GeneID 54156) | -0.23 | enough cells in well | inactive |
| Gbp2 (GeneID 14469) | -0.86 | enough cells in well | inactive |
